Assay results from article PMC7969736.
These are yes or no findings as the source states them, for the method shown. In cells and extracts the contact can be indirect. Some entries that bind do so weakly or less than the wild type.

Amino acid sequences for entries named in this document (tags omitted).
UniProt Q04206: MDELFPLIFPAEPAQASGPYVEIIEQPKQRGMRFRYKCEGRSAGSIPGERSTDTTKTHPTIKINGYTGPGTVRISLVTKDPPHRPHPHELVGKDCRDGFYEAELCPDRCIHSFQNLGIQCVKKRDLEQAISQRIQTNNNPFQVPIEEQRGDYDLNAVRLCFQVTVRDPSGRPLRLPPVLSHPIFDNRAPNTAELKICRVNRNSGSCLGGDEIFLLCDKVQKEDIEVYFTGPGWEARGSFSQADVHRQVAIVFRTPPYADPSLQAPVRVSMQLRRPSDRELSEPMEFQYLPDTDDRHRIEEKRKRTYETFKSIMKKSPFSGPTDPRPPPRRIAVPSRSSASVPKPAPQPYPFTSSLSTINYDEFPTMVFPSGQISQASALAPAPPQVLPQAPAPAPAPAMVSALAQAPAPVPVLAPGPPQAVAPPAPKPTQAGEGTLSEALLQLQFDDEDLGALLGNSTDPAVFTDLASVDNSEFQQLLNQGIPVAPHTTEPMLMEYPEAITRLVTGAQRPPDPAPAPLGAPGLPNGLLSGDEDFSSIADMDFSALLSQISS
UniProt Q09472: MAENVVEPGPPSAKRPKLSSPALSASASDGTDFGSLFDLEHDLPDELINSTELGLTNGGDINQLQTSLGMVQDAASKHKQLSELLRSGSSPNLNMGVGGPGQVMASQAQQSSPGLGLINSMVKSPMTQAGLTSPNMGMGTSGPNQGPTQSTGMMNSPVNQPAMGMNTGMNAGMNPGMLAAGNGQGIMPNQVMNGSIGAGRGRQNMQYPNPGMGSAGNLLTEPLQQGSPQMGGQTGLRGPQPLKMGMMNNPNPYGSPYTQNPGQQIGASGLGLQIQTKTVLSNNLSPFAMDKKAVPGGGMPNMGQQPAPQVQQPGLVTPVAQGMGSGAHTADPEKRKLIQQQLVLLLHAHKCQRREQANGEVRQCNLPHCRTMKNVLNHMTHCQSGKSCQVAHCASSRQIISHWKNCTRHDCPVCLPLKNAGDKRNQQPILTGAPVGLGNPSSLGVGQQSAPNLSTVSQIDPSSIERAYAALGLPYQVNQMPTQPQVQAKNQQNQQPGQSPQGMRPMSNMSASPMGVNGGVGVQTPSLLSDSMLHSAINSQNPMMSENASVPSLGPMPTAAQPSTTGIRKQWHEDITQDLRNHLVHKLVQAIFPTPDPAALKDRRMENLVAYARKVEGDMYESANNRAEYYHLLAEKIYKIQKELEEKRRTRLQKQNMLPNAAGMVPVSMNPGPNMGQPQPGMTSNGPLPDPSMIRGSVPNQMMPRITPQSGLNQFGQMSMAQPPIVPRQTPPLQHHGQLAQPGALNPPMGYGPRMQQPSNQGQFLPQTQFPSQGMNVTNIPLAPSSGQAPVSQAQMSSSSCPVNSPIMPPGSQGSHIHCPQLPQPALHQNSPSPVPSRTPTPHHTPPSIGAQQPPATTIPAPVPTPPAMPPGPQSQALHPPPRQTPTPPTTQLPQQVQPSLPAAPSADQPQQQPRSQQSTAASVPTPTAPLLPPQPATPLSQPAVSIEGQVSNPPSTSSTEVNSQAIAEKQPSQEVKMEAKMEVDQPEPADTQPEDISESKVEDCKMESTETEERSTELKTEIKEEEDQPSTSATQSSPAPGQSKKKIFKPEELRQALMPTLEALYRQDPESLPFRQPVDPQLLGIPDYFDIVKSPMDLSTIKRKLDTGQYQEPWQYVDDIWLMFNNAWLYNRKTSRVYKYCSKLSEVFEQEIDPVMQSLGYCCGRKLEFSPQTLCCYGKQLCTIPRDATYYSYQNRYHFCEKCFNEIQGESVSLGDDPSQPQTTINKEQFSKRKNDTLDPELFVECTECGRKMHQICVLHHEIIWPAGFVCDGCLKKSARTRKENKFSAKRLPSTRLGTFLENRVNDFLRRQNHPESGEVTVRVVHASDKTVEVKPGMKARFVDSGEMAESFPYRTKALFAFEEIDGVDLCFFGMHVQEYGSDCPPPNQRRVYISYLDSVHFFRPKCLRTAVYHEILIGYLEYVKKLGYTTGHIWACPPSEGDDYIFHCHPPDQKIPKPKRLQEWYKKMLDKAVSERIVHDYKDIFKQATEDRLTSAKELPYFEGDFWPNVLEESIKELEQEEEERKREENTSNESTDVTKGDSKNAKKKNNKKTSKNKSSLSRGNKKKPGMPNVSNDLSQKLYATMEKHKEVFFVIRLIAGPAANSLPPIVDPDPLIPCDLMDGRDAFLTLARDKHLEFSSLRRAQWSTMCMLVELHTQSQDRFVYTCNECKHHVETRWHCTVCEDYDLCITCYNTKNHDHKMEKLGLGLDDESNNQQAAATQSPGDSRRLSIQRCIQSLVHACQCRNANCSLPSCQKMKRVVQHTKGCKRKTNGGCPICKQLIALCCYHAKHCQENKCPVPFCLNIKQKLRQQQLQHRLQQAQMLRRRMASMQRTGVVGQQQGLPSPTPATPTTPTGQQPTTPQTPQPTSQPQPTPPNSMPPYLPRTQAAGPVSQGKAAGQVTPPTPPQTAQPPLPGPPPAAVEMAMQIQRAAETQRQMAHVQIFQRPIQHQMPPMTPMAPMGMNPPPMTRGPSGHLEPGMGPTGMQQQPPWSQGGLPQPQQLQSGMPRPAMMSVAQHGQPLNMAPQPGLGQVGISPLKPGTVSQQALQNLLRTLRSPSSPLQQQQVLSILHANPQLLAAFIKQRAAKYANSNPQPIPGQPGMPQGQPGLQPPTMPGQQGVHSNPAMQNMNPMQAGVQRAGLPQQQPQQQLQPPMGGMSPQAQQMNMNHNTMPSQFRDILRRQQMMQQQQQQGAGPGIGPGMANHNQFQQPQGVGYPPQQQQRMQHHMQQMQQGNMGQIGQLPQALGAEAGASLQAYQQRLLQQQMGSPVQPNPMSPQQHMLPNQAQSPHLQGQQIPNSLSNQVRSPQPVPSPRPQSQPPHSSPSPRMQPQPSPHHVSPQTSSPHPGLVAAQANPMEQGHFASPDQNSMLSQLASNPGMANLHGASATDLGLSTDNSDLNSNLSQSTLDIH
UniProt P14618: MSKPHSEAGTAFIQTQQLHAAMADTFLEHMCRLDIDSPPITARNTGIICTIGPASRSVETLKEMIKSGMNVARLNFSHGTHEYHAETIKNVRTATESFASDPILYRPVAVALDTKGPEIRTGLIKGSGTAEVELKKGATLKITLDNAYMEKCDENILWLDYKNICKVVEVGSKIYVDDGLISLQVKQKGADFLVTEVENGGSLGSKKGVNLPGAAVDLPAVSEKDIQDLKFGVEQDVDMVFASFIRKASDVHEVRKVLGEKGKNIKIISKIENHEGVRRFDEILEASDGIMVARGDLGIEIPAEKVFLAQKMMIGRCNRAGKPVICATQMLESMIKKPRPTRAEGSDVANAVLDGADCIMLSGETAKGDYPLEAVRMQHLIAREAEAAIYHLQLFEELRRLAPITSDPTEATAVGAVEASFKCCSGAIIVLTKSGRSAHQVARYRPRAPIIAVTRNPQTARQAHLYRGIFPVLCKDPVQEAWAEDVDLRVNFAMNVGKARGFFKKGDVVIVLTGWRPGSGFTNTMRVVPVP

Assays:
[1] = molecular target: NF-κB P65 (human (endogenous in adipose-derived MSCs and CAFs)) (UniProt Q04206); experiment: co-IP; co-IP from purified nuclear proteins of the cells (Supplementary Fig. 6); immunoprecipitation kit (ab206996, Abcam)
[2] = molecular target: NF-κB P65 (human (endogenous in adipose-derived MSCs and CAFs)) (UniProt Q04206); experiment: co-IP; immunoprecipitation kit (ab206996, Abcam); antibodies to endogenous NF-κB P65, PKM2 or P300, IgG isotype control; whole-cell lysates of MSCs and of CAFs (AGS exosome treated); western blot
[3] = molecular target: histone acetyltransferase P300 (human (endogenous in adipose-derived MSCs and CAFs)) (UniProt Q09472); experiment: as above
[4] = molecular target: M2 pyruvate kinase (PKM2) (human (endogenous in adipose-derived MSCs and CAFs)) (UniProt P14618); experiment: as above

Row | Substance | binding [1] | binding [2] | binding [3] | binding [4]
1 | M2 pyruvate kinase (PKM2) (from UniProt P14618 1-531) (enzyme) | binds | binds | binds | 
2 | NF-κB P65 (from UniProt Q04206 1-551) |  |  |  | binds
